Data taken from PubChem BioAssay AID186 (DTP/NCI, 2004).
Values are animals surviving of animals treated; these mice carried no tumour. Counts of survivors are from the toxicity check (mostly the fifth day) where no day follows; animals may have died later. Schedule codes are those of the source, taken here to give the interval after Q, in days (D) or hours (H), and the number of doses after X. Some entries were tested several times; the results are listed from low to high.

System: B6D2F1 mice, nontumored toxicity test, survival
Test: NCI In Vivo Anticancer Drug Screen. Data for tumor model Nontumored Animals (Toxicity Test) in B6D2F1 (BDF1) mice
Details: vehicle: saline

Measured: survivor count

O=C1C=CN(C2OC(CO)C(O)C2O)C(=O)C1 (centres undefined)
7 of 7 and 8 of 8: dose: 128.0 mg/kg/injection, schedule: Q04DX003 (oral) | dose: 512.0 mg/kg/injection, schedule: Q04DX003 (oral)
8 of 8: dose: 8.0 mg/kg/injection, schedule: Q03HX024 (ip) | dose: 16.0 mg/kg/injection, schedule: Q03HX008 (ip) | dose: 16.0 mg/kg/injection, schedule: Q03HX016 (ip) | dose: 16.0 mg/kg/injection, schedule: Q03HX024 (ip) | dose: 32.0 mg/kg/injection, schedule: Q01DX009 (ip) | dose: 32.0 mg/kg/injection, schedule: Q03HX016 (ip) | dose: 32.0 mg/kg/injection, schedule: Q03HX024 (ip) | dose: 64.0 mg/kg/injection, schedule: Q01DX009 (ip) | dose: 64.0 mg/kg/injection, schedule: Q01DX009 (oral) | dose: 64.0 mg/kg/injection, schedule: Q01DX009 (sc) | dose: 64.0 mg/kg/injection, schedule: Q03HX008 (ip) | dose: 64.0 mg/kg/injection, schedule: Q03HX016 (ip) | dose: 64.0 mg/kg/injection, schedule: Q03HX024 (ip) | dose: 64.0 mg/kg/injection, schedule: Q04DX003 (ip) | dose: 128.0 mg/kg/injection, schedule: Q01DX001 (ip) | dose: 128.0 mg/kg/injection, schedule: Q01DX009 (ip) | dose: 128.0 mg/kg/injection, schedule: Q01DX009 (oral) | dose: 128.0 mg/kg/injection, schedule: Q01DX009 (sc) | dose: 128.0 mg/kg/injection, schedule: Q03HX008 (ip) | dose: 128.0 mg/kg/injection, schedule: Q03HX016 (ip) | dose: 128.0 mg/kg/injection, schedule: Q03HX024 (ip) | dose: 128.0 mg/kg/injection, schedule: Q04DX003 (ip) | dose: 128.0 mg/kg/injection, schedule: Q04DX003 (sc) | dose: 128.0 mg/kg/injection, schedule: Q08DX002 (ip) | dose: 256.0 mg/kg/injection, schedule: Q01DX001 (ip) | dose: 256.0 mg/kg/injection, schedule: Q01DX009 (ip) | dose: 256.0 mg/kg/injection, schedule: Q01DX009 (oral) | dose: 256.0 mg/kg/injection, schedule: Q01DX009 (sc) | dose: 256.0 mg/kg/injection, schedule: Q03HX008 (ip) | dose: 256.0 mg/kg/injection, schedule: Q03HX016 (ip) | dose: 256.0 mg/kg/injection, schedule: Q04DX003 (ip) | dose: 256.0 mg/kg/injection, schedule: Q04DX003 (oral) | dose: 256.0 mg/kg/injection, schedule: Q04DX003 (sc) | dose: 256.0 mg/kg/injection, schedule: Q08DX002 (ip) | dose: 512.0 mg/kg/injection, schedule: Q01DX001 (ip) | dose: 512.0 mg/kg/injection, schedule: Q01DX009 (ip) | dose: 512.0 mg/kg/injection, schedule: Q01DX009 (oral) | dose: 512.0 mg/kg/injection, schedule: Q01DX009 (sc) | dose: 512.0 mg/kg/injection, schedule: Q04DX003 (ip) | dose: 512.0 mg/kg/injection, schedule: Q04DX003 (sc) | dose: 512.0 mg/kg/injection, schedule: Q08DX002 (ip) | dose: 1024.0 mg/kg/injection, schedule: Q01DX001 (ip) | dose: 1024.0 mg/kg/injection, schedule: Q01DX009 (oral) | dose: 1024.0 mg/kg/injection, schedule: Q04DX003 (ip) | dose: 1024.0 mg/kg/injection, schedule: Q04DX003 (oral) | dose: 1024.0 mg/kg/injection, schedule: Q04DX003 (sc) | dose: 1024.0 mg/kg/injection, schedule: Q08DX002 (ip) | dose: 2048.0 mg/kg/injection, schedule: Q01DX001 (ip) | dose: 2048.0 mg/kg/injection, schedule: Q04DX003 (oral) | dose: 2048.0 mg/kg/injection, schedule: Q08DX002 (ip)
7 of 7: dose: 32.0 mg/kg/injection, schedule: Q01DX009 (sc) | dose: 32.0 mg/kg/injection, schedule: Q03HX008 (ip)
